Experimental data published in PubChem BioAssay AID540256 (National Center for Advancing Translational Sciences (NCATS), 2011).
Among all 300,000 compounds or so, about 3,700 (1.2%) were called active. This list was built around the results that the source calls inconclusive (neither active nor inactive); the mix of calls is not that of the screen. The call rests on the fitted dose curve; tested in HEK293 cells. Potencies beside an inconclusive call are fits to weak or partial responses and may not hold up.

Test: qHTS for Inhibitors of binding or entry into cells for Lassa Virus; further: nearly all actives have a fitted effect of over 50% in size
Details: Lassa virus pseudotype entry inhibition, cell reporter; activity change, negative = inhibition: at 37.9 µM (top of the series) unless noted
On the % scale 0 is the no-effect control and ±100 the full control effect; potency means the concentration at half of the fitted maximal effect.

| SMILES | Potency | activity change, negative = inhibition |
| --- | --- | --- |
| O=C(Nc1nc(SCc2ccc(F)cc2)ns1)c1ccco1 | inconclusive: 2.59 µM [activator, single point] | – |
| O=C(CSc1ncnc2sc3c(c12)CCCCC3)NCc1ccco1 | inconclusive: 35.5 µM [inhibitor, single point] | – |
| COc1ccc(OC)c2sc(N(CCN(C)C)C(=O)/C=C/c3cccs3)nc12 | inconclusive: 35.5 µM [inhibitor, single point] | – |
| COc1ccc(OC(=O)NCCc2ccccc2)cc1 | inconclusive: 35.5 µM [inhibitor, single point] | – |
| CC1(C)C(c2ccccn2)=[N+]([O-])C(C)(C)N1O | inactive | – |
| Fc1cccc(Cn2ccc(-c3ccc4c(c3)OCO4)n2)c1 | inconclusive: 9.2 µM [activator, partial curve, poor fit] | – |
| CCOC(=O)C1(C)C=C(Nc2ccc(OC)cc2)C(=O)N1c1ccccc1 (configuration not stated) | inactive | – |
| O=C(O)C1CC=CCC1C(=O)Nc1ccc(S(=O)(=O)N2CCCc3ccccc32)cc1 (configuration not stated) | active: 3.26 µM | – |
| COc1ccc(OCCCC(=O)Nc2nc(-c3ccccn3)cs2)cc1 | inconclusive: 15.8 µM [inhibitor, partial curve, poor fit] | – |
| COc1ccc(-n2nnnc2SCC(=O)c2cccc(OC)c2)cc1 | inconclusive: 8.2 µM [inhibitor, partial curve, poor fit] | – |
| CCOc1ccc(N2C(=O)CC(NCCNc3ccc([N+](=O)[O-])cn3)C2=O)cc1 (configuration not stated) | inconclusive: 12.6 µM [activator, single point] | – |
| CC(C)NC(=O)c1ccc2c(=O)n(CC3CCCO3)c(=S)[nH]c2c1 (configuration not stated) | inactive | – |
| CC(C(=O)N1CCOCCOCCOCCOCCOCC1)N1C(=O)c2ccccc2C1=O (configuration not stated) | – | inconclusive: 3.89% [activator] |
| Fc1ccc(-c2nc3c(-c4ccc(Cl)cc4)cnn3cc2CCN2CCOCC2)cc1 | inconclusive: 2.24 µM [activator, partial curve, poor fit] | – |
| C/C(=N\NC(=O)C(C)Oc1ccc([N+](=O)[O-])cc1)c1ccccn1 (configuration not stated) | active: 11.6 µM | – |
| O=C(c1cccc(C(F)(F)F)c1)N1CCN(CCc2ccccc2)CC1 | inconclusive: 15.8 µM [activator, single point] | – |
| COC(=O)c1ccc(NCc2cc(O)ccc2O)cc1O | active: 20 µM | – |
| COc1ccc2[nH]c(=O)c(CN(c3ccc(C)c(C)c3)S(C)(=O)=O)cc2c1 | inconclusive: 0.631 µM [inhibitor, full curve, poor fit] | – |
| Cc1ccccc1-n1nnnc1SCC(=O)NCC1CCCO1 (configuration not stated) | inactive | – |
| O=C1Nc2ncccc2OC1CCCl (configuration not stated) | inconclusive: 6.31 µM [activator, partial curve, poor fit] | – |
| Clc1ccc(C2=NNC(=NCc3ccc4c(c3)OCO4)SC2)cc1 | inconclusive: 35.5 µM [inhibitor, single point] | – |

Single entries from the list:
CC1(C)C(c2ccccn2)=[N+]([O-])C(C)(C)N1O – Potency: inactive
CC(C(=O)N1CCOCCOCCOCCOCCOCC1)N1C(=O)c2ccccc2C1=O (configuration not stated) – activity change, negative = inhibition: inconclusive: 3.89% [activator]

Additional results:

| SMILES | Potency | activity change, negative = inhibition |
| --- | --- | --- |
| Cn1c(C(=O)N2CCc3ccccc3C2)cc2c(=O)n3ccccc3nc21 | inconclusive: 0.0058 µM [activator, full curve, poor fit] | – |
| COc1cc(/C=N\NC(=O)c2ccc(Cl)cc2)ccc1Oc1ccc([N+](=O)[O-])cn1 | inconclusive: 28.2 µM [activator, single point] | – |
| Cc1ccc(-n2nc(C)c3c(C)cc(=O)[nH]c32)cc1 | inconclusive: 20.6 µM [activator, single point] | – |
| Cc1ccc(S(=O)(=O)N(C)C)cc1NC(=S)NNC(=O)C1CC1 | inconclusive: 20.6 µM [activator, partial curve, poor fit] | – |
| O=C(NC1CC1)c1ccc(CN(c2ccccc2)S(=O)(=O)c2ccccc2)cc1 | inconclusive: 10 µM [inhibitor, partial curve, poor fit] | – |
| O=C(Nc1ccc(O)cc1)c1ccc(NC(=O)c2cccs2)cc1 | inconclusive: 35.5 µM [inhibitor, single point] | – |
| COc1cc(OC)cc(C(=O)Nc2ccc(S(=O)(=O)N3CCCCC3c3cccnc3)cc2)c1 (configuration not stated) | inconclusive: 22.4 µM [inhibitor, partial curve, poor fit] | – |
| CCN(CC)S(=O)(=O)c1cccc(C(=O)N/N=C/c2ccccc2OCC(=O)O)c1 | inactive | – |
| C/C(=N\N1CCCCCC1)c1c(O)n(C2CCCCC2)c(=O)[nH]c1=O | inconclusive: 35.5 µM [inhibitor, single point] | – |
| CCOP(=O)(OCC)C(NS(=O)(=O)c1ccccc1)C(Cl)(Cl)Cl (configuration not stated) | inactive | – |
| Cc1ccc(CNC(=O)[C@H]2C[C@@H]2[C@H](NP(=O)(c2ccccc2)c2ccccc2)c2ccccc2)o1 | inconclusive: 11.6 µM [inhibitor, partial curve, poor fit] | – |
| CC(C)(Sc1cc(C(C)(C)C)c(O)c(C(C)(C)C)c1)Sc1cc(C(C)(C)C)c(O)c(C(C)(C)C)c1 | inactive | – |
| CCn1c(SCC(=O)N/N=C/c2c[nH]c3ccccc23)nnc1-c1ccc(Cl)cc1 | inconclusive: 20.6 µM [inhibitor, single point] | – |
| COCCCn1c(-c2ccc(OC)cc2)cc(C(=O)NC2CCCCCCC2)c1C | inconclusive: 17.8 µM [inhibitor, single point] | – |
| Cc1cccc(-c2ccc(C=Nc3c(C)n(C)n(-c4ccccc4)c3=O)o2)c1 | inconclusive: 11.2 µM [inhibitor, partial curve, poor fit] | – |
| Cc1ccccc1C(=O)N/N=C/c1ccsc1C | inconclusive: 29.1 µM [inhibitor, single point] | – |
| CC1CCN(C(=S)NC(=O)c2ccc(F)cc2)CC1 | inactive | – |
| c1ccc(Cn2nnc3c(N4CCc5ccccc5C4)ncnc32)cc1 | inactive | – |
| O=C(/C=C/c1ccccc1Cl)c1cccnc1 | inconclusive: 22.4 µM [inhibitor, single point] | – |
| COc1ccc(Cn2cc(C(=O)c3ccc(Cl)cc3)c(=O)c3cc4c(cc32)OCO4)cc1 | inconclusive: 5.01 µM [inhibitor, partial curve, poor fit] | – |
| CC(=O)N1c2ccc(C)cc2C(c2ccccc2)CC1C (configuration not stated) | inconclusive: 35.5 µM [inhibitor, single point] | – |
